From article PMC3608606, “Arabidopsis DEAD-Box RNA Helicase UAP56 Interacts with Both RNA and DNA as well as with mRNA Export Factors” come the findings set out here.

For at least one entry, the source does not settle the construct or the ends of the probe. For part of these data: No signal at the amounts used counts as a negative. For part of these data: At least one verdict rests on a figure or table, not on a statement of the authors. Where a protein sequence is shown, tags need not be part of it.

The target of series [1] is T1, Df31 (Decondensation Factor 31) (Drosophila) (UniProt O16043).
T1 sequence (looked up, limits assumed): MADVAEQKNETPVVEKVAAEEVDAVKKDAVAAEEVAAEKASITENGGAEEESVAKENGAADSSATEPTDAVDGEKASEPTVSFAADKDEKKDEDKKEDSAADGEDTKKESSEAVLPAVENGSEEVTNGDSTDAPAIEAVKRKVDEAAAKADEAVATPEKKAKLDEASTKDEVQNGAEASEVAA
Description: EMSA. The note with it: 35 uM protein, EMSA: 32P probe, PAGE, same cited protocol, salt and pH not given, recombinant protein, label: 32P.

In series [2] the target is T2, UAP56 (Arabidopsis thaliana) (UniProt Q56XG6).
T2 sequence (looked up): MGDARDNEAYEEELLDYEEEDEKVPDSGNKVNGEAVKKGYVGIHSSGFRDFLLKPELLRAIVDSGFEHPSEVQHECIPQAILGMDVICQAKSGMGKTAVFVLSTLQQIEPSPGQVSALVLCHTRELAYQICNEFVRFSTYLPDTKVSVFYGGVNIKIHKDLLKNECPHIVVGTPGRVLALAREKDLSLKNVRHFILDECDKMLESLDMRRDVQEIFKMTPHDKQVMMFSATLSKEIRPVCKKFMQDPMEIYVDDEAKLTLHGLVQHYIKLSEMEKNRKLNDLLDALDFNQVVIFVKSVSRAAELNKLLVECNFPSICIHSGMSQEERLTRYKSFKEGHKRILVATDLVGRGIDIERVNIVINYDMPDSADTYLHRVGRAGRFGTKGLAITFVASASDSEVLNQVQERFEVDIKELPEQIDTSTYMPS
Nature of the series: EMSA. To be noted: EMSA: 32P probe, PAGE, same cited protocol, salt and pH not given, recombinant protein, residues 1-427, protein details: 6xHis (pQE9), label: 32P. A general note: In EMSA bound probe runs differently from free probe, usually more slowly.

Series [3] has as its target T2, UAP56 (Arabidopsis thaliana). Nature of the series: MST. The note with it: MST: 50 nM labelled oligonucleotide in EMSA buffer (composition cited, ref 44), 28 C, Hill fit, recombinant protein, residues 1-427, protein details: 6xHis (pQE9), label: fluorescent.
Series [4] concerns the target T1, Df31 (Decondensation Factor 31) (Drosophila). Nature of the series: MST. The note with it: MST: 50 nM labelled oligonucleotide in EMSA buffer (composition cited, ref 44), 28 C, Hill fit; recombinant protein; label: fluorescent.

The term Kd denotes the equilibrium constant for the complex coming apart.

Regarding “AAAACAAAATAGCACCGTAAAGCAC (double strand) [D25ds]”, the binding result in series [1] is “no binding”. Take AAAACAAAATAGCACCGTAAAGCAC [D25 ssDNA]: the binding result in series [1] (single-stranded DNA) is on record as “no binding”; in series [2] (10-30 uM protein, single-stranded DNA), “no binding”. In the case of “AAAACAAAAUAGCACCGUAAAGCAC / GUGCUUUACGGUGCUAUUUUGUUUU [R25ds]”, the binding result in series [1] is given as “no binding”. For AAAACAAAAUAGCACCGUAAAGCAC [R25 ssRNA], the binding result in series [1] is given as “binds”; in series [2] (0.25-5 uM protein, single complex), “binds”. For “CCTCCTTTTTTCTTTTTTTTTTTTTTTCT [D29 ssDNA]”, the binding result in series [3] (up to 80 uM protein, single-stranded DNA) is listed as “no binding”. Take “CCUCCUUUUUUCUUUUUUUUUUUUUUUCU [R29 ssRNA]”: the Kd turned out to be 35.3 µM in series [4] and 26.6 µM in series [3].
